Data: patent US20070111934A1
These are yes or no findings as the source states them, for the method shown. In cells and extracts the contact can be indirect. Some entries that bind do so weakly or less than the wild type.

The chains behind the UniProt entries cited, without tags or fusion partners. Where a name states a change or a piece, a line headed by the entry shows the natural chain unless it says otherwise.
UniProt P29466: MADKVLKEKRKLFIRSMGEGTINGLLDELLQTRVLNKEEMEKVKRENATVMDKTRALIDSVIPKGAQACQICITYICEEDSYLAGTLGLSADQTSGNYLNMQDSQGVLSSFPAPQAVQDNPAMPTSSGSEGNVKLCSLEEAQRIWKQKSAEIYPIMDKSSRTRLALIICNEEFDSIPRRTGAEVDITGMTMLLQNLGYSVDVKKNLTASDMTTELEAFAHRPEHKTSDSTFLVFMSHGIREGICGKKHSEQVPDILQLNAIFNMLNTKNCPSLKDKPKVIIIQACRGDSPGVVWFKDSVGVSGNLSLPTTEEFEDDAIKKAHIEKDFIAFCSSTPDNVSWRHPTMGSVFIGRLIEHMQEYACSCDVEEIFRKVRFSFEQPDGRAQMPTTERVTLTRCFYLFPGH
UniProt Q9HC29: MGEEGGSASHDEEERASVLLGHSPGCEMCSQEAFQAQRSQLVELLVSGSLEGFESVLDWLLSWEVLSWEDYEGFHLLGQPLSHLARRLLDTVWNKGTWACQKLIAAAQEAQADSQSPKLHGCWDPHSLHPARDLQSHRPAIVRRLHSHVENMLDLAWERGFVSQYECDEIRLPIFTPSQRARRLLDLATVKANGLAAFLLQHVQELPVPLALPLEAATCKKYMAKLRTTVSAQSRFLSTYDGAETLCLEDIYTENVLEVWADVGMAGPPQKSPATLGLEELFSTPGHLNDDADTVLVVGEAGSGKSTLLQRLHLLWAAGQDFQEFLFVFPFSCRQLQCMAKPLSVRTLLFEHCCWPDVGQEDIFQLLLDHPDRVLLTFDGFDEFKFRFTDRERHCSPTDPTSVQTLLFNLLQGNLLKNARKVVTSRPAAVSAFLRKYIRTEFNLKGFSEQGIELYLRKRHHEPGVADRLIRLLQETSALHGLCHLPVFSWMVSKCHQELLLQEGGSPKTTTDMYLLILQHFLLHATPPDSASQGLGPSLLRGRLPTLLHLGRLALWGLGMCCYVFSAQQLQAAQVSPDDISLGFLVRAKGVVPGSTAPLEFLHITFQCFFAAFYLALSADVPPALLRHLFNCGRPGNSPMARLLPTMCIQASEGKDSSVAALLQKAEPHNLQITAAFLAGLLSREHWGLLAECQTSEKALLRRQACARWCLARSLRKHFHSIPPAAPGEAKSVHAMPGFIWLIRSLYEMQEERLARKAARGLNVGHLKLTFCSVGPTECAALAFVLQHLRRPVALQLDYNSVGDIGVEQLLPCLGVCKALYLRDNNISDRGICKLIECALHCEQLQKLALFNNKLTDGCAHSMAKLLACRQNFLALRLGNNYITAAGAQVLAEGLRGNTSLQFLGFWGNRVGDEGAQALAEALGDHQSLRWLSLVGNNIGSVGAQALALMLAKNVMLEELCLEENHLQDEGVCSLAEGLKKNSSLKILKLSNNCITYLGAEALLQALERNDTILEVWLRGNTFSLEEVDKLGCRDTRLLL

Experiments:
[1] = molecular target: N-terminal FLAG-tagged procaspase-1 (C285A) (FLAG-procaspase-1 (C285A)) (Homo sapiens (Human)) (UniProt P29466); test: co-immunoprecipitation with anti-FLAG antibody, Western blotting with anti-myc antibody (FIG. 2-A)
[2] = molecular target: N-terminal FLAG-tagged procaspase-1 (C285A) (FLAG-procaspase-1 (C285A)) (Homo sapiens (Human)) (UniProt P29466); test: co-immunoprecipitation with anti-FLAG M2 agarose from HEK293T lysate, Western blotting with anti-myc antibody
[3] = molecular target: N-terminal FLAG-tagged procaspase-1 (C285A) (FLAG-procaspase-1 (C285A)) (Homo sapiens (Human)) (UniProt P29466); test: co-immunoprecipitation from lysate of co-transfected HEK293T cells (anti-FLAG M2 or anti-myc agarose), Western blotting
[4] = molecular target: N-terminal FLAG-tagged procaspase-1 (C285A) (FLAG-procaspase-1 (C285A)) (Homo sapiens (Human)) (UniProt P29466); test: co-immunoprecipitation from lysate of co-transfected cells, Western blotting (FIG. 1-B)

binding [1] | binding [2] | binding [3] | binding [4] | Substance
binds | binds |  |  | N-terminal myc-tagged procaspase-1 (C285A) (Myc-procaspase-1 (C285A)) (from UniProt P29466 1-404) (enzyme)
 |  | binds | binds | C-terminal myc-His-tagged NOD2 (NOD2-myc-His) (from UniProt Q9HC29 1-1040)
